Test results from PMC5349559.
Results are given in words; binding and its absence hold for the method and conditions named. Some entries that bind do so weakly or less than the wild type.

The chains behind the UniProt entries cited, without tags or fusion partners. Residues count along the entry.
UniProt P13500, residues 24-99: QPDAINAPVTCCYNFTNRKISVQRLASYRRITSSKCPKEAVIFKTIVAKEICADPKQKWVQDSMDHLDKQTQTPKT

Biological target: CCR2b (UniProt P41597)
Assay: radioligand binding; cold-ligand competition on 2 x 10^5 HEK-CCR2b cells; unlabelled CCL2 or NO2-CCL2 at 0.1-650 nM with a tracer amount of [125I]-CCL2; on ice with agitation 2 hr; binding buffer 1 mM CaCl2, 5 mM MgCl2, 50 mM HEPES, 0.5% BSA, pH7.2; washed with binding buffer with 0.5 M NaCl; one site competition analysis; only the binder purified

Question: “[125I]-CCL2 (from UniProt P13500 24-99) (ligand)” was tested. Which binding did it give?
Answer: Its binding is “binds”.
